# Only a part is listed here, and it is no random draw.
# Sequences of proteins named here, by UniProt entry; tags and fusion partners are left off. A change or cut given only in a name is not applied to a line headed by its entry.
# UniProt Q9P2R3: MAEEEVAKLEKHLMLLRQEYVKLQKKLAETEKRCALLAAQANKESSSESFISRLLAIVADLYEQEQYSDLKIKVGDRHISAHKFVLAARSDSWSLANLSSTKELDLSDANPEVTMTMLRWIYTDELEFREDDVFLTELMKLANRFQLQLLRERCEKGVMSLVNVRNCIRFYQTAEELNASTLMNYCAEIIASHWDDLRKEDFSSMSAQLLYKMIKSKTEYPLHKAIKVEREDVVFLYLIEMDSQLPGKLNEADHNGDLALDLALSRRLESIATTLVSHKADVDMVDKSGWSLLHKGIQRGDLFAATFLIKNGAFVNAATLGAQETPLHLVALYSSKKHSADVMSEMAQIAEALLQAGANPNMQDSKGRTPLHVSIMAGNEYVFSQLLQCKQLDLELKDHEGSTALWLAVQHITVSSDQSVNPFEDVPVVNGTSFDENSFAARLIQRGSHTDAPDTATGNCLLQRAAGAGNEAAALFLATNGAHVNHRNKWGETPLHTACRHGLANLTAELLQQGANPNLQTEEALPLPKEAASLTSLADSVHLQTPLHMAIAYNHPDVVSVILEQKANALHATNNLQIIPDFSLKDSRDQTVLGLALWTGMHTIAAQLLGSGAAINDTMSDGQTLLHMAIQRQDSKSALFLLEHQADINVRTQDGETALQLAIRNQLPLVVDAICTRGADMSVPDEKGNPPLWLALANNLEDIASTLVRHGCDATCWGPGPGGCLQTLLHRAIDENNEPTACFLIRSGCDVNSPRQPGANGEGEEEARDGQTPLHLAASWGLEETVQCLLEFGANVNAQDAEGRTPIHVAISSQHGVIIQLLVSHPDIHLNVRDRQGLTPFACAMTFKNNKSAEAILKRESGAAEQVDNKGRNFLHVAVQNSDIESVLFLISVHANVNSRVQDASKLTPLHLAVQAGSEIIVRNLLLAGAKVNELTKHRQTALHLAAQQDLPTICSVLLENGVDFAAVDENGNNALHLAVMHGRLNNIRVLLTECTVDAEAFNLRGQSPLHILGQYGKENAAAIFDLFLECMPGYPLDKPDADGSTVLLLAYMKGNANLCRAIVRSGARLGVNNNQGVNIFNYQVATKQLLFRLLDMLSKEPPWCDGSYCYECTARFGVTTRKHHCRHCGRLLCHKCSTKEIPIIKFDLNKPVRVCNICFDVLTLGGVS
# UniProt Q9NZ08: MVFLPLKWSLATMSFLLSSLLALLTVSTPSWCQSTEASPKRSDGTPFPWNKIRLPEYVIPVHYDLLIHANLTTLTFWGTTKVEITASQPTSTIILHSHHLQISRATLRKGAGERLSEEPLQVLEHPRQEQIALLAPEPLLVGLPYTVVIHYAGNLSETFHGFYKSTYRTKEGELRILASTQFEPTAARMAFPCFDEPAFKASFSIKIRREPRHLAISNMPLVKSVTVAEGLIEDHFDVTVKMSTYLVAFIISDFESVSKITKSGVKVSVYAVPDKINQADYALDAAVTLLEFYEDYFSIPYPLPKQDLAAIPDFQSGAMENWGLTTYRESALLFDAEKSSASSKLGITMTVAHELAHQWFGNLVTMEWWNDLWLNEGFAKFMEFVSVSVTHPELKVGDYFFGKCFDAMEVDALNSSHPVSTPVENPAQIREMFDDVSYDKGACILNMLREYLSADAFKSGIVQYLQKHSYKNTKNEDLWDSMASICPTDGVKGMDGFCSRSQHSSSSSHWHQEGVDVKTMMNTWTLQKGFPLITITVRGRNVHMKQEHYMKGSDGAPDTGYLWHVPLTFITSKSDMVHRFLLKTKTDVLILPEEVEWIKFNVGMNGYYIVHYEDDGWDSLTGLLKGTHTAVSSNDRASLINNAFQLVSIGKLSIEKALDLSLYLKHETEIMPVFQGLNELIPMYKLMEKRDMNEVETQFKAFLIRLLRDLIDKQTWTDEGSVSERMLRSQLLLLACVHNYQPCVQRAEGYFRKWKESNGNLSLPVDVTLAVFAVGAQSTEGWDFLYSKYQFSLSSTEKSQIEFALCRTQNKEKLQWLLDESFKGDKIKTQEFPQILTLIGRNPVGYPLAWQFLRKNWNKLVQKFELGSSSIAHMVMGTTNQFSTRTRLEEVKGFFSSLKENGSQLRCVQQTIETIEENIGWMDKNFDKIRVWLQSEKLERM
# UniProt Q9UBL3, whole entry, looked up: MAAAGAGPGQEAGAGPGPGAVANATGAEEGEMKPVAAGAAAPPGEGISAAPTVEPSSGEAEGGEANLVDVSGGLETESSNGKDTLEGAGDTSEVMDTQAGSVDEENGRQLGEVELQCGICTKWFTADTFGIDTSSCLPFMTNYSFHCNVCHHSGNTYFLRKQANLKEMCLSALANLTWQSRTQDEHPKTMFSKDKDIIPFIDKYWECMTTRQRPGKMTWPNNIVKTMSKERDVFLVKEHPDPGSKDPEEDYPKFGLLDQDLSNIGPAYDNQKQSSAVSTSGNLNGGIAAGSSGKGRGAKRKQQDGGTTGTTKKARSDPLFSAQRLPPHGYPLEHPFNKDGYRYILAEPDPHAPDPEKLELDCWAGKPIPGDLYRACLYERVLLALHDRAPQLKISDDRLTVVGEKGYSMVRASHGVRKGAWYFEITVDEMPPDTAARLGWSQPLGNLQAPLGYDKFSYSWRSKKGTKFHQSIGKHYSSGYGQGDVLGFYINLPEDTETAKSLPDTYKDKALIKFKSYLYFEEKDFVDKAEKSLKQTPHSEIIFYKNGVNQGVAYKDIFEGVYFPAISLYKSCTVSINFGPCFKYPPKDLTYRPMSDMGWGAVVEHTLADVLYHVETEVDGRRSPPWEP
# UniProt Q9UBB6: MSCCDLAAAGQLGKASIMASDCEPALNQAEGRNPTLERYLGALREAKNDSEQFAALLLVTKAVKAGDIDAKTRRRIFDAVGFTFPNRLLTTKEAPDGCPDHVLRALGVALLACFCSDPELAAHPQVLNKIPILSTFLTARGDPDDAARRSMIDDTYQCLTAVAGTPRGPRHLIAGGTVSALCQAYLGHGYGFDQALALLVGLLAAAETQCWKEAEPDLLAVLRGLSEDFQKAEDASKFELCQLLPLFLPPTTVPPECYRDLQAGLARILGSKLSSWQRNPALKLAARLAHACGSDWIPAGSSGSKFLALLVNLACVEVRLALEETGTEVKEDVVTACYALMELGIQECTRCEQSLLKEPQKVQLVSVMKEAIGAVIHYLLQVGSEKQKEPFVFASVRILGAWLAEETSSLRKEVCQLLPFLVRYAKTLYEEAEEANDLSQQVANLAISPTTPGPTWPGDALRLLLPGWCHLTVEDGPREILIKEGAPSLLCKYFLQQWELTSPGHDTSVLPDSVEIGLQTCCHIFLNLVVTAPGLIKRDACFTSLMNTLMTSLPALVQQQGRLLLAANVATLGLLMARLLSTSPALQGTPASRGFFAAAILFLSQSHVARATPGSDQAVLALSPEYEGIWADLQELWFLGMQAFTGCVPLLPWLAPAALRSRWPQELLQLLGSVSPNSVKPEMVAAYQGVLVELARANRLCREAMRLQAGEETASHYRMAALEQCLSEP
# UniProt Q9NW64: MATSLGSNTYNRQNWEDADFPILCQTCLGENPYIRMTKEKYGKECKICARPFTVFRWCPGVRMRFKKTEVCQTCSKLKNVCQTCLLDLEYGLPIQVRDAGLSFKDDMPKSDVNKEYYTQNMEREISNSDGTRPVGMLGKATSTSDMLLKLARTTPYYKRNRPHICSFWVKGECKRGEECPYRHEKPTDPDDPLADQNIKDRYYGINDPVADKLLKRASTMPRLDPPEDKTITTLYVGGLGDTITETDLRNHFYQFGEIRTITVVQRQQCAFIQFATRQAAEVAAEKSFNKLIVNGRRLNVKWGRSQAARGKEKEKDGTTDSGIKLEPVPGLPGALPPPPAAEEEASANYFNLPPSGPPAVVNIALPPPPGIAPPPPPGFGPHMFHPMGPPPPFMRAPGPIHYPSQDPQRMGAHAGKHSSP
# UniProt Q9UBW8: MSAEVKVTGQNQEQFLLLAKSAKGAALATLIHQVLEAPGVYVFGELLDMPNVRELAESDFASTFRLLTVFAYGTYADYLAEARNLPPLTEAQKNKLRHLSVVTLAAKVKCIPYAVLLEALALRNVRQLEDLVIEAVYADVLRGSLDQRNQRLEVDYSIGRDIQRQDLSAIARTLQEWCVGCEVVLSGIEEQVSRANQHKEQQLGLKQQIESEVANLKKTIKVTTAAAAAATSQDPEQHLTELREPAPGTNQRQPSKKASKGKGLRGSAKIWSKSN
# UniProt Q9UBF6, whole entry: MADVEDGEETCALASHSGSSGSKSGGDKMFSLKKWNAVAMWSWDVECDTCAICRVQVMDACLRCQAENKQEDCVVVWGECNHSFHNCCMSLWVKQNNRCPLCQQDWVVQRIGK
# UniProt Q9UGI8: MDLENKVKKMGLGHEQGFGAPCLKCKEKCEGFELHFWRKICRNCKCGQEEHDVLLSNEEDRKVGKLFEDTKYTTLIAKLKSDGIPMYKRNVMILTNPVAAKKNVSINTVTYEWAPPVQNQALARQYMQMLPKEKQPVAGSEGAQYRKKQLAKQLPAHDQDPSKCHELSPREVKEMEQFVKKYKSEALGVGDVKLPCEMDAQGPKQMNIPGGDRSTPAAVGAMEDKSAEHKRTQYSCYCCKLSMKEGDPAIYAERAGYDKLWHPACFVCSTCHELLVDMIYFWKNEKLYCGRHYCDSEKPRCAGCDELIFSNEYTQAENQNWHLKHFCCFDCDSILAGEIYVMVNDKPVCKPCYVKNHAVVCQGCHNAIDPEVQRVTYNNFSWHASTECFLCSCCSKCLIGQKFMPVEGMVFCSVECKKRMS
# UniProt Q9NXW9: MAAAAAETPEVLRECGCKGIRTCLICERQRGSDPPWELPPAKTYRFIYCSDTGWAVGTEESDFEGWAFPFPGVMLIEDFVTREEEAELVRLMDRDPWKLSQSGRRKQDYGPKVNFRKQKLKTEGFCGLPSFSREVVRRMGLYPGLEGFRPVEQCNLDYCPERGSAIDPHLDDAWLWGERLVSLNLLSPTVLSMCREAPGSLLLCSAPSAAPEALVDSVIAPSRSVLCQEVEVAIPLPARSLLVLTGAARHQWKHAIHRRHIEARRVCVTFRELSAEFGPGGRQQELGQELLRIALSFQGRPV
# UniProt Q9UBT2: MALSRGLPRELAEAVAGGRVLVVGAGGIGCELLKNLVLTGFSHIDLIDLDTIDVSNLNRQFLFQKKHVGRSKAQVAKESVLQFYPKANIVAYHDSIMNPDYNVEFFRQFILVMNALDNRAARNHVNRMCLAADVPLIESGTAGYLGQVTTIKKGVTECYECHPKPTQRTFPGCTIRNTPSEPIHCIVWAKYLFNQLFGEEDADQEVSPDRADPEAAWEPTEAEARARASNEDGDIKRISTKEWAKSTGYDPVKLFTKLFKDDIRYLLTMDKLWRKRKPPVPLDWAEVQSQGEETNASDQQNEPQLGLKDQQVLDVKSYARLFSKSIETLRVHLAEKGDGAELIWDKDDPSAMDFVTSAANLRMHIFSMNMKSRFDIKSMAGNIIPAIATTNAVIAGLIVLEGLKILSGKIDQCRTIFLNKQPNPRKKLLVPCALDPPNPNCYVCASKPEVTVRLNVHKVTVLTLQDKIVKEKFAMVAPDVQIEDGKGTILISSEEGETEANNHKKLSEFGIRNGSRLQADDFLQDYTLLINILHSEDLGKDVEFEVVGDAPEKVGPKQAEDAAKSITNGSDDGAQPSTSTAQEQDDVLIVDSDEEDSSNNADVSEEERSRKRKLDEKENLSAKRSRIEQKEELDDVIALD
# UniProt Q9NV70: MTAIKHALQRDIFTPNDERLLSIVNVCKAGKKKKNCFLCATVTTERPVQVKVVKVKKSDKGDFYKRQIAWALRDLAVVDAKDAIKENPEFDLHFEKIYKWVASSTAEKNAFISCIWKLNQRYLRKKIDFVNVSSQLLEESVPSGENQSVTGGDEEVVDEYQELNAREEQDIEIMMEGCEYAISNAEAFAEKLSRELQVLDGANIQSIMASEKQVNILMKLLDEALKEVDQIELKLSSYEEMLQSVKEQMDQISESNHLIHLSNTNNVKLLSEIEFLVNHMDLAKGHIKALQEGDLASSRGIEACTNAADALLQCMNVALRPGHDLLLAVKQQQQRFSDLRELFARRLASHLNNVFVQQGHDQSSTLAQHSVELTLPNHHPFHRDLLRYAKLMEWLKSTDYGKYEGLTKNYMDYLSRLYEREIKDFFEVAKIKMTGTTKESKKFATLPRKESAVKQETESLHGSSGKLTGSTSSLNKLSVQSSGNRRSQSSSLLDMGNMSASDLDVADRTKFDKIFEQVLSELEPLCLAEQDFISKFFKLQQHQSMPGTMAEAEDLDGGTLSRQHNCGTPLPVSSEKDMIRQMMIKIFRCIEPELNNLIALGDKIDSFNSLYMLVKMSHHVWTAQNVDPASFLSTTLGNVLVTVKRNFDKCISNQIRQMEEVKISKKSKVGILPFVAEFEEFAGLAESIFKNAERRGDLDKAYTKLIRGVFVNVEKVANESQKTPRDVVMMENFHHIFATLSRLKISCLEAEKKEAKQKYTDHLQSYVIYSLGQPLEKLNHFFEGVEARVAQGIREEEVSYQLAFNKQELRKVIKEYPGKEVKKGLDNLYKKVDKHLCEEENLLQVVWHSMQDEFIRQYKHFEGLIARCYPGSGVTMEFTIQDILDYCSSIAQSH
# Compound: COC(=O)C#Cc1ccccc1 [methyl 3-phenylpropiolate]
# Assay: log2 ratio of iodoacetamide-alkyne labeling of the cysteine site, DMSO over compound (competition); higher = stronger covalent engagement of the cysteine by the compound, active = 1 or more
# Details: 500 µM; treatment time 1 h; system: HEK293T cell lysate
# Method in brief: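 After 1 h at ambient temperature with vehicle or electrophile (500 µM), HEK293T lysate (2 mg/mL) was labelled for 1 h with iodoacetamide alkyne and clicked to sCIP-TMT reagents. Pooled samples were trypsin-digested overnight at 37 °C, streptavidin-enriched, acid-eluted and analysed by Orbitrap Eclipse LC-MS/MS with FAIMS, then quantified in FragPipe over three replicates with duplicate channels. A cysteine's log2 competition ratio is its mean control-channel over mean compound-channel reporter intensity. Cysteines quantified in only one replicate were not included.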
row,Target,log2 ratio of iodoacetamide-alkyne labeling
1,UniProt Q9NVA2_C268,inactive: 0.822
2,ANKFY1 C1156 (UniProt Q9P2R3),inactive: 0.475
3,CTTNBP2NL C312 (UniProt Q9P2B4),inactive: 0.348
4,ERAP1 C486 (UniProt Q9NZ08),inactive: 0.733
5,ASH2L C207 (UniProt Q9UBL3),inactive: 0.0802
6,AASS C534 (UniProt Q9UDR5),inactive: 0.0127
7,NCDN C415 (UniProt Q9UBB6),inactive: 0.318
8,PPP4R2 C134 (UniProt Q9NY27),inactive: 0.137
9,UniProt Q9NW64_C24,inactive: 0.351
10,DNAJC11 C235 (UniProt Q9NVH1),inactive: 0.103
11,FAM120A C669 (UniProt Q9NZB2),inactive: 0.253
12,ATXN10 C134 (UniProt Q9UBB4),inactive: 0.126
13,FAM120A C279 (UniProt Q9NZB2),inactive: -0.00137
14,ASF1B C178 (UniProt Q9NVP2),active: 1.22
15,LARS C554 (UniProt Q9P2J5),active: 1.74
16,MRPS18A C108 (UniProt Q9NVS2),inactive: 0.0912
17,UTP6 C175 (UniProt Q9NYH9),active: 1.62
18,UniProt Q9P266_C243,inactive: 0.578
19,ARHGEF12 C921 (UniProt Q9NZN5),inactive: 0.718

# Individual results from above.
# PPP4R2 C134 (UniProt Q9NY27) | log2 ratio of iodoacetamide-alkyne labeling: inactive: 0.137
# ATXN10 C134 (UniProt Q9UBB4) | log2 ratio of iodoacetamide-alkyne labeling: inactive: 0.126

# Continued.

row,Target,log2 ratio of iodoacetamide-alkyne labeling
1,COPS7A C110 (UniProt Q9UBW8),inactive: 0.0698
2,CCDC88C C1520 (UniProt Q9P219),active: 1.15
3,RNF7 C11 (UniProt Q9UBF6),inactive: 0.556
4,RRBP1 C933 (UniProt Q9P2E9),inactive: 0.114
5,IRAK4 C13 (UniProt Q9NWZ3),inactive: 0.336
6,RRBP1 C1128 (UniProt Q9P2E9),inactive: 0.167
7,TES C412 (UniProt Q9UGI8),inactive: 0.0269
8,NXF1 C252 (UniProt Q9UBU9),inactive: 0.0876
9,UTP6 C310 (UniProt Q9NYH9),inactive: 0.0486
10,LARS C546 (UniProt Q9P2J5),inactive: 0.158
11,TES C164 (UniProt Q9UGI8),inactive: -0.12
12,LRWD1 C88 (UniProt Q9UFC0),inactive: 0.122
13,KCTD5 C6 (UniProt Q9NXV2),inactive: 0.701
14,NCDN C4 (UniProt Q9UBB6),active: 1.66
15,UniProt Q9UBF8_C89,inactive: 0.445
16,ALKBH4 C126 (UniProt Q9NXW9),inactive: 0.103
17,UBA2 C185 (UniProt Q9UBT2),inactive: 0.0148
18,EXOC1 C650 (UniProt Q9NV70),inactive: 0.174
